This note sets out measurements from article PMC12462960.

Amino acid sequences for entries named in this document (tags omitted). Residues count along the entry.
UniProt P80188, residues 21-198: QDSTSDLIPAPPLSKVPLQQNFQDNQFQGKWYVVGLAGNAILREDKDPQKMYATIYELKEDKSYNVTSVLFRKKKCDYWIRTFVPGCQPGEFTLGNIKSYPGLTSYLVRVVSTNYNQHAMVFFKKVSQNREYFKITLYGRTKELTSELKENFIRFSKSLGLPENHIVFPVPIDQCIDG

Assay [1] has as its target T1, Flag-tagged FBXO2 (Flag-FBXO2), full length, in HEK293T cells (UniProt Q9UK22).
T1 sequence: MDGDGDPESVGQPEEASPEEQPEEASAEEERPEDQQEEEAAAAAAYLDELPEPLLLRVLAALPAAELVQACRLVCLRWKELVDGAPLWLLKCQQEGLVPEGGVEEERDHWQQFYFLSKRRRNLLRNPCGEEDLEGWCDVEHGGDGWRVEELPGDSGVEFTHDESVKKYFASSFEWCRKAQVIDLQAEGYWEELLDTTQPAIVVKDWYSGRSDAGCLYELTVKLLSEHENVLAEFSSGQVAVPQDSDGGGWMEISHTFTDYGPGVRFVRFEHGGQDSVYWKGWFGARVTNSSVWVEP
Description: co-IP; exogenous co-IP in HEK293T lysate; Anti-Myc-Tag mAb agarose or ANTI-FLAG M2 Affinity Gel overnight; washed three times with IP buffer; immunoblot. In general terms: A western blot detects proteins with antibodies after separation by electrophoresis.

The target of assay [2] is T2, F-box only protein 2 (FBXO2), endogenous in human NP cells (human (endogenous in human NP cells)) (UniProt Q9UK22).
T2 sequence: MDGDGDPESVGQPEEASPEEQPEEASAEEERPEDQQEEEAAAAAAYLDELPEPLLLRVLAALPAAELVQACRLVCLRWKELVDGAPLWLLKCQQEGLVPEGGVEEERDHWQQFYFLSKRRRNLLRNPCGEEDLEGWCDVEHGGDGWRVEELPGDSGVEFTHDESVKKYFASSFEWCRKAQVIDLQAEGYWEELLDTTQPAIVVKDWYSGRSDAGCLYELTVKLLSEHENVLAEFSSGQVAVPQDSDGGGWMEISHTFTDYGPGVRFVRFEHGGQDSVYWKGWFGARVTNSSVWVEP
Description: co-IP; endogenous co-IP in human NP cell lysate; antibody overnight, Protein A/G PLUS-Agarose 2 h at 4 °C; control IgG; immunoblot.

Assay [3] concerns the target Myc-tagged LCN2 (Myc-LCN2), in HEK293T cells (UniProt P80188). Description: co-IP; exogenous co-IP in HEK293T lysate; Anti-Myc-Tag mAb agarose or ANTI-FLAG M2 Affinity Gel overnight; washed three times with IP buffer; immunoblot.

No constants are given. Whether binding was seen depends on the method and setting. Binding seen in cells or lysates may run through a third protein. Some results given as binding are weak or reduced against the parent protein; the word gives no strength. For some of these results: Tags and fused reporters may be left off the sequences shown.

For the molecule “Myc-tagged LCN2 (Myc-LCN2), in HEK293T cells (from UniProt P80188 21-198)”, the binding result in assay [1] is “binds”.
Take “lipocalin-2 (LCN2), endogenous in HEK293T cells (from UniProt P80188 21-198)”: in assay [1], the binding entry is recorded as “binds”.
For the molecule “lipocalin-2 (LCN2), endogenous in human NP cells (from UniProt P80188 21-198)”, in assay [2], the binding entry is “binds”.

B1: F-box only protein 2 (FBXO2), endogenous in HEK293T cells (protein, UniProt Q9UK22 1-296)
chain: MDGDGDPESVGQPEEASPEEQPEEASAEEERPEDQQEEEAAAAAAYLDELPEPLLLRVLAALPAAELVQACRLVCLRWKELVDGAPLWLLKCQQEGLVPEGGVEEERDHWQQFYFLSKRRRNLLRNPCGEEDLEGWCDVEHGGDGWRVEELPGDSGVEFTHDESVKKYFASSFEWCRKAQVIDLQAEGYWEELLDTTQPAIVVKDWYSGRSDAGCLYELTVKLLSEHENVLAEFSSGQVAVPQDSDGGGWMEISHTFTDYGPGVRFVRFEHGGQDSVYWKGWFGARVTNSSVWVEP
B1: in assay [3], the binding result is recorded as “binds”.
